No constants are given. Whether binding was seen depends on the method and setting. Binding seen in cells or lysates may run through a third protein. Some binding calls cover weakened binding; strength is not graded here.
Molecular target: T1, CKLF-like MARVEL transmembrane domain-containing protein 6 (CMTM6), endogenous in mouse splenocytes (mouse (endogenous in splenocytes)) (UniProt Q9CZ69)
T1 sequence: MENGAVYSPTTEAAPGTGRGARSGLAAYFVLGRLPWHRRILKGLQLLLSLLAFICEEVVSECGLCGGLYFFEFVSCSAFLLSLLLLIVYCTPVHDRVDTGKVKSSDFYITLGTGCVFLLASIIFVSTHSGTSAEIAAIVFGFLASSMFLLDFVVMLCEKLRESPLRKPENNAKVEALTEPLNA
Test: co-IP

The chains behind the UniProt entries cited, without tags or fusion partners. Residues count along the entry.
UniProt P27512, 20-289: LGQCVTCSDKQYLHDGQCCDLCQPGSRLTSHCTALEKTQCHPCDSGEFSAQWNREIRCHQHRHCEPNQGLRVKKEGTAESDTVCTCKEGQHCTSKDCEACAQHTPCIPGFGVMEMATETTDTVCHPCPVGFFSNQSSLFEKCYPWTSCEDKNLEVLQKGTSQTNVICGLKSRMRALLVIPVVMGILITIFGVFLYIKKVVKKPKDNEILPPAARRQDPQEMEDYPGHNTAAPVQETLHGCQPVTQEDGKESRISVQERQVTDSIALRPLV

binding: binds
Substance: CD40, endogenous in mouse splenocytes (from UniProt P27512 20-289) (receptor)

— article doi:10.1101/2024.03.05.583639
